At least one compound was matched to its structure with a doubt left.
System: PAH rats
Experiment: Monocrotaline-induced pulmonary arterial hypertension (PAH) rats: RVSP, RVMI, pulmonary arterioles
Type: in vivo, SD rats
Conditions: Tadalafil group 10 mg·kg^−1d^−1
Text: SD rats were randomly divided into 8 groups, 15 rats/group: a normal control group (Vehicle); a PAH model group (MCT); a PAH+potassium salt crystal form B of WYQ mini-dose group (hereafter referring to as a mini-dose group); a PAH+potassium salt crystal form B of WYQ low-dose group (hereafter referring to as a low-dose group); a PAH+potassium salt crystal form B of WYQ medium-dose group (hereafter referring to as a medium-dose group); a PAH+potassium salt crystal form B of WYQ high-dose group (hereafter referring to as a high-dose group); a PAH+Sildenafil control group (hereafter referring to as a Sildenafil group); a PAH+Tadalafil control group (hereafter referring to as a Tadalafil group). […]
Mini-dose group: the potassium salt crystal form B of WYQ was prepared into a 0.4 mg/ml medicinal solution (ready to use) with normal saline, and administered by gavage at the dose of 2 mg·kg^−1d^−1;
Low-dose group: the potassium salt crystal form B of WYQ was prepared into a 1 mg/ml medicinal solution (ready to use) with normal saline, and administered by gavage at the dose of 5 mg·kg^−1d^−1;
Medium-dose group: the potassium salt crystal form B of WYQ was prepared into a 2 mg/ml medicinal solution (ready to use) with normal saline, and administered by gavage at the dose of 10 mg·kg^−1d^−1; […]

CN1CC(=O)N2[C@H](c3ccc4c(c3)OCO4)c3[nH]c4ccccc4c3C[C@@H]2C1=O [Tadalafil, reference compound]
WT % of pulmonary arterioles vs PAH model group: decreased significantly | tunica media thickness of pulmonary arterioles vs PAH model group: decreased significantly
